At least one peptide structure holds a part that was inferred or is arguable (an end, a ring closure or a residue). Marks after values point to notes of the source that are not given here. Ends that are not written are not given here.
Target: T1, Aβ (1-40) peptide (Homo sapiens, UniProt P05067)
T1 construct: synthetic Aβ (1-40) peptide; purchased Biosource, Camarillo, Calif., USA; host or cells: chemical synthesis
Assay: In vitro formation of amyloid fibril from Aβ (1-40), Thioflavin T fluorescence
Type: biochemical
Description: In vitro formation of amyloidfibril—In vitro formation of amyloid fibril was in the presence of the synthetic Aβ (1-40) peptide (Biosource, Camarillo, Calif., USA) as a precursor. The reporter molecule was Thioflavin T (ThT) (Sigma, Cat. No. T-3516, Jerusalem, Israel), a benzothiazole dye that undergoes a shift in its excitation spectrum (from 340 nm to 450 nm) when interacting with β-sheet amyloid structures. The resultant ThT fluorescence signal is proportional to the amount of amyloid formed (LeVine, 1993). A stock solution of Aβ in dimethylsulfoxide (DMSO) was diluted with phosphate-buffered saline (PBS) containing 0.02% Na-Azid to a final concentration of 162 μM and 20 μl of the diluted Aβ solution was placed in each well of a 96 multiwell plate (Nunc, Roskilde, Denmark). After 20 minutes of pre-incubation at room temperature of the Aβ samples (20 μl), 80 μl of 1.25 μM ThT in 50 mM glycine buffer, pH 8.5, was added. Incubation was with shaking at 200 rpm for 6 to 8 hours at the noted temperatures. Fluorescence was measured continuously or at 30-40 minute intervals, using a Spectro-fluorometer (Tecan, Maennedorf, Switzerland). Excitation and emission wavelengths were 450 nm and 485 nm, respectively. Enhancement of the fibrillation process by the different combinations of water-dissolved cholinesterases and peptides mimicking fragments thereof, was evaluated by dissecting the time curves into two stages: the lag before the onset of the fluorescence increase (the nucleation process) and the average rate of fluorescence increase at several time points (rate of fibrils formation). Statistics analysis was performed using the Kaleidagraph Software (Reading, Pa., USA).
BChE attenuates amyloid fibrils formation—Amyloid fibril (Aβ) formation was quantified by measuring changes in ThT fluorescence. As predicted, Aβ fibrils were spontaneously formed in vitro provided that the Aβ peptide was present above 5 μM. […] Reactions were performed in the absence or presence of increasing concentrations of purified human BChE (SEQ ID NO:2; FIG. 1a), recombinant ACHE-S (SEQ ID NO:6; FIG. 1b) or both (FIGS. 1c and d). […] Due to the complex kinetics of the fibril formation process the apparent rate of change in ThT fluorescence was repeatedly determined during the exponential phase of increase in its signal (at 390±20 minutes). […] In contrast, addition of similar doses of AChE to Aβ, predictably shortened by half the lag time prior to fibril formation, again in a dose dependent manner (FIG. 1e). The lag period therefore decreased from 240 minutes to 150 minutes and the maximal rate of fibril formation increased from 0.057 to 0.116 fluorescence units (FU)/min for Aβ alone as compared to Aβ in the presence of 0.36 μM AChE-S (FIG. 1b and Table 7, hereinbelow). When increasing doses of hBChE were added to a combined mix of 33 μM Aβ with 0.36 μM AChE-S, a dose-dependent interference with the fibril formation process was observed (FIG. 1c and 2a). Thus, BChE is capable of reducing the rate of fibrillation of Aβ alone, or Aβ which is formed in the presence of AChE.

Amino acid sequences for entries named in this document (tags omitted). Residues count along the entry.
UniProt P05067, 672-711 limits assumed: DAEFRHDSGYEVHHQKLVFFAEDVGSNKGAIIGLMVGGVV

[1] = relative to No addition, asterisk = statistically significant

## GNIDEAEWEWKAGFHRWNNYMMDWKNQFNDYTSKKESCVGL [BSP41]
  low dose that attenuates Aβ fibrillation: 2 mg/L
33 μM Aβ, ThT fluorescence
  effect on Aβ fibril formation (in words): capable of interfering with Aβ fibrillation in a dose dependent manner
Attenuation for 400 minutes of incubation, ThT fluorescence
  concentration needed for complete attenuation of Aβ fibrillation: 2 µg/mL
[1]
  Lag (fold change): >1.9* fold change
  Rate (fold change): 0.4* fold change

— patent publication US20090169520A1, “Compounds, Pharmaceutical Compositions and Therapeutic Methods of Preventing and Treating Diseases and Disorders Associated With Amyloid Fibril Formation” (YISSUM RESEARCH DEVELOPMENT COMPANY OF THE HEBREW …, priority 2005, published 2009)
